In the supplement of paper PMC10849652 one finds log2 fold change data, which are given here for 39 targets.

The chains behind the UniProt entries cited, without tags or fusion partners. Where a name states a change or a piece, a line headed by the entry shows the natural chain unless it says otherwise.
UniProt Q9BQ67, whole entry, looked up: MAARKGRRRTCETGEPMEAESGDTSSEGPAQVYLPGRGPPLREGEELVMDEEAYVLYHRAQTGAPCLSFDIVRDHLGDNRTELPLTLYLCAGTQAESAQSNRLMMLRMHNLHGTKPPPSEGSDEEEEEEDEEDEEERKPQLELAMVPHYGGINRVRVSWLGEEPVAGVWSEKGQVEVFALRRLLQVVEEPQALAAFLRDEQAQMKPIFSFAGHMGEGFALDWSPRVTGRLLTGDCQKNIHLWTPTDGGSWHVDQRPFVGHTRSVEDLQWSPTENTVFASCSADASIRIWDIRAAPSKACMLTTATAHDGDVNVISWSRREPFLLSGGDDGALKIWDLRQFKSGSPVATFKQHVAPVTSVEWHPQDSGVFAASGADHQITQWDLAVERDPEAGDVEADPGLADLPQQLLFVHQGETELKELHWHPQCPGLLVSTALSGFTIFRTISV
UniProt Q92896: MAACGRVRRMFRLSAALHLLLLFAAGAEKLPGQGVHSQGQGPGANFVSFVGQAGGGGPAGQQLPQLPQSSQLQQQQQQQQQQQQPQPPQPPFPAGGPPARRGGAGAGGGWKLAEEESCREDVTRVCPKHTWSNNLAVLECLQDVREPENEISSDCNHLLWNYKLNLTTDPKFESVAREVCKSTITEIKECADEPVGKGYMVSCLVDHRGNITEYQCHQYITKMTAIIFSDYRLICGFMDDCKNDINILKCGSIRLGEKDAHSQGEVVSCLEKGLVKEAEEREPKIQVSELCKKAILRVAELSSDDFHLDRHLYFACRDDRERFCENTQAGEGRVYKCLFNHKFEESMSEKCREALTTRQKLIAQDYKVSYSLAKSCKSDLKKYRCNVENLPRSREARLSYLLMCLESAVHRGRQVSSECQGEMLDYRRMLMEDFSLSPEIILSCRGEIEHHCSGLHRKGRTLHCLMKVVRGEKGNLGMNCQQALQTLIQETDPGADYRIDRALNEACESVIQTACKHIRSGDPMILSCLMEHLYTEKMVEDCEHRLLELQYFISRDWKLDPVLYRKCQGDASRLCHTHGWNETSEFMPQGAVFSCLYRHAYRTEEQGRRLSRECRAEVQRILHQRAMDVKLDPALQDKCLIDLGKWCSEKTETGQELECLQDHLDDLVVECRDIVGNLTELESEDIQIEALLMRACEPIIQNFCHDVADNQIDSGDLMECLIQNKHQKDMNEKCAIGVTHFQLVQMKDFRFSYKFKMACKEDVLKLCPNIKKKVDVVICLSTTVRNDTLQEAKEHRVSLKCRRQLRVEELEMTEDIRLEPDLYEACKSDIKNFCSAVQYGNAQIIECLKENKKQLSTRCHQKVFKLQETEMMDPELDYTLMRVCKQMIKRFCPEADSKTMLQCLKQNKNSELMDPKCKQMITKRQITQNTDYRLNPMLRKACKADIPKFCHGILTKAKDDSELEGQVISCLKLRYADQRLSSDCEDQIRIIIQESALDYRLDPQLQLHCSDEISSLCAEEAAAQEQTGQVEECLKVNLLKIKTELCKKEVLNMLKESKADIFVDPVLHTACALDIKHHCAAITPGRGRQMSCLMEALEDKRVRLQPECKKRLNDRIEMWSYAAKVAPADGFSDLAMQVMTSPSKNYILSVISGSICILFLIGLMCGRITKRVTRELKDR
UniProt Q9NQX3: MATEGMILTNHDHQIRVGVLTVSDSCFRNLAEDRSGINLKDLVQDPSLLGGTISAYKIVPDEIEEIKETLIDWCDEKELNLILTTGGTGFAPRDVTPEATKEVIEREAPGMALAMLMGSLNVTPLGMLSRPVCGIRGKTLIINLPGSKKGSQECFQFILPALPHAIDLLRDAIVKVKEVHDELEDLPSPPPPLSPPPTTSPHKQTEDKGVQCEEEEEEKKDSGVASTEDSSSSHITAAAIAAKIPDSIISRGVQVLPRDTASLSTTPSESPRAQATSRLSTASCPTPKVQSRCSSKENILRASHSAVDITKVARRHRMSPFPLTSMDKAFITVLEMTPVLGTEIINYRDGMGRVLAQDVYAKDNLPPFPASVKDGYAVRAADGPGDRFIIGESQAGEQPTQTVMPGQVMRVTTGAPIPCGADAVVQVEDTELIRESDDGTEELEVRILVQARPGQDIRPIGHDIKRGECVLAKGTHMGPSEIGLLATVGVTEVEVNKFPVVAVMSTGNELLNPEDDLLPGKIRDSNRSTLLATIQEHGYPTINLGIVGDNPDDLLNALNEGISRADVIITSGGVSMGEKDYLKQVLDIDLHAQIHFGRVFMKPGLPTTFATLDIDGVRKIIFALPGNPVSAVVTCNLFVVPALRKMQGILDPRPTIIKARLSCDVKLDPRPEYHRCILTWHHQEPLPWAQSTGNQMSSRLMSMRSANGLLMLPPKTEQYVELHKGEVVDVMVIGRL
UniProt Q9HC38: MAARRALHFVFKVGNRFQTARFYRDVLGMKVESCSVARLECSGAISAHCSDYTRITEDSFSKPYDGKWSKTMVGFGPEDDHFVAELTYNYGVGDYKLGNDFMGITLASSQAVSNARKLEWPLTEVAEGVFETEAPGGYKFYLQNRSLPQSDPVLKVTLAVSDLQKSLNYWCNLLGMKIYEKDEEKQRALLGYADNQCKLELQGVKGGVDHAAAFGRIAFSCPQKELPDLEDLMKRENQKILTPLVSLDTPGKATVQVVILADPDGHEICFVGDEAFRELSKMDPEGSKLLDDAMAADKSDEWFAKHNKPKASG
UniProt Q9BRX5: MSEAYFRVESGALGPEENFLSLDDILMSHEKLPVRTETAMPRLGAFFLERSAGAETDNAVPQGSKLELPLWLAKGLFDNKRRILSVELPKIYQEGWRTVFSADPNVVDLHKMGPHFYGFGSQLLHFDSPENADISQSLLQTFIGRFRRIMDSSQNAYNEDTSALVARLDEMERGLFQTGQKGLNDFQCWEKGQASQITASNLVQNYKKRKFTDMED
UniProt P50148, whole entry, looked up: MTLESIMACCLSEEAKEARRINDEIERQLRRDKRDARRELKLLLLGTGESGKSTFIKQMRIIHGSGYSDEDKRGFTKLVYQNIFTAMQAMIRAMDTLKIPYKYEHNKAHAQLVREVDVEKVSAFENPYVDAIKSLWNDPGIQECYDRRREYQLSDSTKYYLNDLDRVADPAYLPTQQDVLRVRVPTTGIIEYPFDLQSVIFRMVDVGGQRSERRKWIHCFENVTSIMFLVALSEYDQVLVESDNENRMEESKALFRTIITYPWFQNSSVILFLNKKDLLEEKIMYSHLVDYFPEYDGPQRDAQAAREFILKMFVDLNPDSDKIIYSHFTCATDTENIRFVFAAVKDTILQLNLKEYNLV
UniProt Q9Y5P6: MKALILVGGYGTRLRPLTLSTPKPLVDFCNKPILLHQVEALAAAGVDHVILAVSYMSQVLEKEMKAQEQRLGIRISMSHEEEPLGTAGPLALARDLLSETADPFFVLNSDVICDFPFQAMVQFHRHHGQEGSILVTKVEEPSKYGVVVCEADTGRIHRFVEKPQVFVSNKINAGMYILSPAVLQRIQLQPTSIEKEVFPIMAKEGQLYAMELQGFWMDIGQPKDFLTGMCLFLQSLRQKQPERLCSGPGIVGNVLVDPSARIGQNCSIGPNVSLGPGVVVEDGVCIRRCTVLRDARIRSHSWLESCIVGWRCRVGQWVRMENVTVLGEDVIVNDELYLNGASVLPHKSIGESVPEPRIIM
UniProt P62993, whole entry, looked up: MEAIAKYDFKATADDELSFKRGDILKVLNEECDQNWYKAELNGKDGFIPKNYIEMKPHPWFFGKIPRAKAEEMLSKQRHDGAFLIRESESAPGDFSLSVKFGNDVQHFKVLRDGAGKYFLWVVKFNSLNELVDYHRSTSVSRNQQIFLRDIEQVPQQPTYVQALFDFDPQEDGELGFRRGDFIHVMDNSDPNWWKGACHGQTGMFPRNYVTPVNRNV
UniProt Q8N335: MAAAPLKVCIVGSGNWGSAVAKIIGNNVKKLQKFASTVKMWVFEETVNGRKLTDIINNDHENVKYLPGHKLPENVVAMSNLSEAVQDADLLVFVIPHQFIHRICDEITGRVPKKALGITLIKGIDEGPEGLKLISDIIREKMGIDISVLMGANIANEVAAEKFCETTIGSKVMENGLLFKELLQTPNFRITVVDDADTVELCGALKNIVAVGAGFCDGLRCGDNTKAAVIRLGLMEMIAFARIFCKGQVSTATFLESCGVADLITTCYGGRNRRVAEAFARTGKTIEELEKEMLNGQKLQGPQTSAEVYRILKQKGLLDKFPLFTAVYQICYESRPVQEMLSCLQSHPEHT
UniProt Q7Z2K8: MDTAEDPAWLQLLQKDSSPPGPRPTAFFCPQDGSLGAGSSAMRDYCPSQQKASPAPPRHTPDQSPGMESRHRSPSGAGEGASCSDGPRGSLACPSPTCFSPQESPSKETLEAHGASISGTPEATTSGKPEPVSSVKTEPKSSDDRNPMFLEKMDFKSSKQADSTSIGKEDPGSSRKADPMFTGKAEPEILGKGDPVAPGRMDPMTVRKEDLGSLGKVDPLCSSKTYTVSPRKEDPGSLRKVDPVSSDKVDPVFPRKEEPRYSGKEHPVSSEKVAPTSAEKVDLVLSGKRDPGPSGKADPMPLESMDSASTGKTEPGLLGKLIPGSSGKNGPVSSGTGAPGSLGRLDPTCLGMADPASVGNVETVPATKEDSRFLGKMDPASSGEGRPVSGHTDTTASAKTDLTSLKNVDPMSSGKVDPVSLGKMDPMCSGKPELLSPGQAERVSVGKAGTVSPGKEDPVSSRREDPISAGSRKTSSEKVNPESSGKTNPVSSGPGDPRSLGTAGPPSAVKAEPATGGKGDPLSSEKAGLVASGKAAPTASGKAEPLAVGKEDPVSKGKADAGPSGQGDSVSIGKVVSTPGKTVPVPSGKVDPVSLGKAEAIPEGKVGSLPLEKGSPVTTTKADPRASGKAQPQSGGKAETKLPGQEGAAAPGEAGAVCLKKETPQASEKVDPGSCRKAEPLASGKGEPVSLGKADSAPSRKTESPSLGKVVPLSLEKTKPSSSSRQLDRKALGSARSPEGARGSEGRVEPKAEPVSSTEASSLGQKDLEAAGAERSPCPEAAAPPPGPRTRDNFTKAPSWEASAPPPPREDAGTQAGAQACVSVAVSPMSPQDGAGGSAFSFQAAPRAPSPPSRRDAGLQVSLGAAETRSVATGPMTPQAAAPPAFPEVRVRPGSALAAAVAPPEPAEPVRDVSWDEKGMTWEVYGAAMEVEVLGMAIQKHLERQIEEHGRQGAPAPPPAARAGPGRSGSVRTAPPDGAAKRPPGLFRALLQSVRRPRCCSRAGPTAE
UniProt Q9UHW5, whole entry, looked up: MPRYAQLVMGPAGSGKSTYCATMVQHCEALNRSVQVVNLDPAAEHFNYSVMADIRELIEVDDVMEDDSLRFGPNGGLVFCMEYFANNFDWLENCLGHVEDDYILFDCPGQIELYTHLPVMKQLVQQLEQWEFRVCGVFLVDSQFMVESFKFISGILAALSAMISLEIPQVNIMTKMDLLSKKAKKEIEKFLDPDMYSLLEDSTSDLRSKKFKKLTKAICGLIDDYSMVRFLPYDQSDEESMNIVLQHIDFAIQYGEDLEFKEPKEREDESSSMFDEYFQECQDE
UniProt O00461: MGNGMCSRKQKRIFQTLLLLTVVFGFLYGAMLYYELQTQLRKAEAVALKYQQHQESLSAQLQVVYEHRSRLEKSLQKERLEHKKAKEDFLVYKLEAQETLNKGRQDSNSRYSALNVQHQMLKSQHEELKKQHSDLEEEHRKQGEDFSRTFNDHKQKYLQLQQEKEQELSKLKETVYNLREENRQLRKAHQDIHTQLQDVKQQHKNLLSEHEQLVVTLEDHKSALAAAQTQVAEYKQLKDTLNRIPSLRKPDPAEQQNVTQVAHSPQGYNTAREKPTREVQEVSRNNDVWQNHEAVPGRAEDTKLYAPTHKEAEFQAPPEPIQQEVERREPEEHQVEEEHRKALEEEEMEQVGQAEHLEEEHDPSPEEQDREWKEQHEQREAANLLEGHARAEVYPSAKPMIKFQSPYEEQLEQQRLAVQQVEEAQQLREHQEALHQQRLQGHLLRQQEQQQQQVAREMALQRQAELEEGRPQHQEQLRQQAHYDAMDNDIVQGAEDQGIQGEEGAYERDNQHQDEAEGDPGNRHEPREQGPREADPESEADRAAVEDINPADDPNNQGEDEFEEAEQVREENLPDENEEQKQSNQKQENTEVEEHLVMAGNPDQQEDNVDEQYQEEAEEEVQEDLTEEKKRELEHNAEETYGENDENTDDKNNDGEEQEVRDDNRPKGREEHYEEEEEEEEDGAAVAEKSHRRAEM
UniProt Q9HCN4, whole entry, looked up: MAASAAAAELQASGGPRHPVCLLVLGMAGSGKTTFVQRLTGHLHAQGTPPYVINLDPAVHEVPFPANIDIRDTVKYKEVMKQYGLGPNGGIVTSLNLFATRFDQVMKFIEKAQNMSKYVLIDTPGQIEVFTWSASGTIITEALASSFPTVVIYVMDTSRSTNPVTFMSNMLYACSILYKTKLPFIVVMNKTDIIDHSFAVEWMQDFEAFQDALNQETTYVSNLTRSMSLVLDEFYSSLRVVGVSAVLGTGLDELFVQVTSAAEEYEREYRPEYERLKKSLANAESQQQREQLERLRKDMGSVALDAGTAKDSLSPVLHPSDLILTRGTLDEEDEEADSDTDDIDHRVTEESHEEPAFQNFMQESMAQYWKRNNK

Some of the results follow.

Compound in the first test: Cc1cc(SCc2sc(-c3ccc(C(F)(F)F)cc3)nc2C)ccc1OCC(=O)O
As to the kind of experiment: log2 fold change, soluble protein after heating vs DMSO (PISA); higher = thermal stabilisation; K562 cells, 10 uM, 30 min; active = over 0.2 and 3.5 SD of the protein, either way, in both replicates (recomputed). The method in brief: (§1)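 For each measurement, 10 μM compound was applied for 30 min to K562 cells at 2×10^6 cells/mL. Aliquots were heated for 3 min across 48°C-58°C, pooled, and extracted in PBS with 0.5% NP-40 at 4°C; the supernatant after 21,000xg for 90 min was soluble protein. This was quantified by TMTpro 16plex LC-MS/MS with channel sums equalised, and thermal stability was reported relative to control samples from duplicates, on a log2 fold-change scale.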
For GOLT1B (UniProt Q9Y3E0), the log2 fold change is inactive: -0.07.

Consider GRWD1 (UniProt Q9BQ67), for which the log2 fold change is inactive: 0.065.

On to GRHPR (UniProt Q9UBQ7), for which the log2 fold change was inactive: -0.005.

Consider GLG1 isoform 2 (UniProt Q92896), for which the log2 fold change was inactive: -0.005.

For GRSF1 (UniProt Q12849), the log2 fold change was inactive: 0.167.

Take GPHN isoform 2 (UniProt Q9NQX3): the log2 fold change was inactive: -0.014.

Consider GLOD4 isoform 2 (UniProt Q9HC38), for which the log2 fold change is inactive: 0.035.

GLB1L2 (UniProt Q8IW92): the log2 fold change is inactive: 0.027.

Consider GIPC1 (UniProt O14908), for which the log2 fold change was inactive: 0.045.

For GOLGA2 (UniProt Q08379), the log2 fold change was inactive: 0.062.

For GINS3 (UniProt Q9BRX5), the log2 fold change is inactive: 0.063.

Turning to GOLGA5 (UniProt Q8TBA6), the log2 fold change is inactive: -0.024.

Turning to GOT1 (UniProt P17174), the log2 fold change was inactive: -0.008.

With GM2A (UniProt P17900), the log2 fold change is inactive: -0.046.

Consider GMFG (UniProt O60234), for which the log2 fold change is inactive: -0.062.

Consider GNAQ (UniProt P50148), for which the log2 fold change was inactive: 0.046.

As for GPATCH11 (UniProt Q8N954), the log2 fold change was inactive: 0.014.

Compound in another test: Cc1ccc(-n2nc(C(C)(C)C)cc2NC(=O)Nc2ccc(OCCN3CCOCC3)c3ccccc23)cc1 [doramapimod]
Described as above. An outline of the steps:
as §1
GMPPB isoform 2 (UniProt Q9Y5P6): the log2 fold change was inactive: 0.007.

Consider GK (UniProt P32189), for which the log2 fold change was inactive: -0.02.

On to GRN (UniProt P28799), for which the log2 fold change is inactive: 0.067.

Take GRB2 (UniProt P62993): the log2 fold change is inactive: -0.008.

For GINS4 (UniProt Q9BRT9), the log2 fold change was inactive: -0.018.

As for GRAP2 (UniProt O75791), the log2 fold change was inactive: -0.18.

With GPD1L (UniProt Q8N335), the log2 fold change was inactive: -0.012.

With GNA13 (UniProt Q14344), the log2 fold change was inactive: 0.001.

For the target GOSR1 (UniProt O95249), the log2 fold change was inactive: 0.021.

As for GPATCH8 (UniProt Q9UKJ3), the log2 fold change is inactive: 0.015.

For the target GPALPP1 (UniProt Q8IXQ4), the log2 fold change was inactive: 0.

As to GPD2 (UniProt P43304), the log2 fold change is inactive: -0.038.

As for GPRIN1 (UniProt Q7Z2K8), the log2 fold change was inactive: 0.012.

For the target GPN3 isoform 2 (UniProt Q9UHW5), the log2 fold change was inactive: 0.

As for GNPDA2 (UniProt Q8TDQ7), the log2 fold change was inactive: -0.025.

Consider GMPR2 isoform 2 (UniProt Q9P2T1), for which the log2 fold change was inactive: -0.032.

Regarding GNE isoform 2 (UniProt Q9Y223), the log2 fold change is inactive: 0.041.

With GPAA1 (UniProt O43292), the log2 fold change was inactive: 0.046.

For GPR107 (UniProt Q5VW38), the log2 fold change was inactive: -0.005.

For the target GORASP2 isoform 3 (UniProt Q9H8Y8), the log2 fold change was inactive: 0.096.

For the target GOLIM4 (UniProt O00461), the log2 fold change was inactive: 0.046.

GPN1 isoform 5 (UniProt Q9HCN4): the log2 fold change was inactive: -0.006.

Turning to GOLT1B (UniProt Q9Y3E0), the log2 fold change was inactive: -0.029.

Regarding GRWD1 (UniProt Q9BQ67), the log2 fold change is inactive: 0.13.

For the target GRHPR (UniProt Q9UBQ7), the log2 fold change is inactive: 0.015.

As to GLG1 isoform 2 (UniProt Q92896), the log2 fold change is inactive: -0.025.

As to GRSF1 (UniProt Q12849), the log2 fold change was inactive: 0.009.

As to GPHN isoform 2 (UniProt Q9NQX3), the log2 fold change was inactive: 0.004.

With GLOD4 isoform 2 (UniProt Q9HC38), the log2 fold change is inactive: 0.006.

Take GLB1L2 (UniProt Q8IW92): the log2 fold change was inactive: -0.021.

For the target GIPC1 (UniProt O14908), the log2 fold change was inactive: 0.044.

Consider GOLGA2 (UniProt Q08379), for which the log2 fold change was inactive: 0.085.

Take GINS3 (UniProt Q9BRX5): the log2 fold change is inactive: -0.019.

With GOLGA5 (UniProt Q8TBA6), the log2 fold change is inactive: -0.018.

On to GOT1 (UniProt P17174), for which the log2 fold change is inactive: -0.012.

For the target GM2A (UniProt P17900), the log2 fold change is inactive: -0.054.

Turning to GMFG (UniProt O60234), the log2 fold change was inactive: -0.015.

In the case of GNAQ (UniProt P50148), the log2 fold change is inactive: -0.029.

Regarding GPATCH11 (UniProt Q8N954), the log2 fold change was inactive: 0.02.
